# Results from one PubChem assay

Data taken from PubChem BioAssay AID977630, deposited by Broad Institute (2014).

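GFP signal from normal-ribosome E. coli grown alongside a humanized-ribosome RFP strain, measured on a plate reader after one day.
Percent-style change in GFP activity at 50 µM; values more negative mean stronger inhibition.
Active needs green reporter loss at least twice the red loss with limited overall growth inhibition; inconclusive means no clear call.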

Common to all entries: at 50 µM (top of the series).
All entries here are filed as inconclusive.
These entries are mostly ones the record files as inconclusive; other results of the assay are not listed here.

SMILES	activity change
Cc1cc(NC(=O)CN2CCN(c3cccc(Cl)c3)CC2)no1	-12.09
C=C(C)Cn1c(=O)c2c(nc3n2CCCN3Cc2ccccc2)n(C)c1=O	-21.79
O=C(Cc1ccc(Cl)cc1)c1ccc(O)cc1	-1.654
Cc1cc(Br)cn2c(Cc3cccc(Cl)c3)c(-c3ccco3)nc12	-2.995
COc1ccc2nc(SCC(=O)Nc3ccccc3OC)[nH]c2c1	-17.33
COc1ccc(S(=O)(=O)n2cccc2)cc1	54.76
OCCCc1cn(-c2ccccc2)c2ccccc12	-57.92
CNC(=O)c1cc(C(=O)c2ccc(C(F)(F)F)cc2F)c[nH]1	-9.399
CC(C)Oc1ccc(C(=O)Nc2cccc3cccnc23)cc1	11.09
CC(Nc1ncnc2ccccc12)c1ccccc1 (stereo unspecified)	-47.47
COc1ccc(OC)c(CN2CCCC(C(=O)c3ccccc3SC)C2)c1 (stereo unspecified)	-18.1
CCCCn1c(=O)[nH]c(=O)c2c1nc(-c1ccccc1F)n2Cc1ccccc1	-15.13
COC(=O)c1c(C)oc(C)c1S(=O)(=O)Nc1ccc(C(C)C)cc1	3.53
NS(=O)(=O)c1ccc(NC(=O)c2cc(Cl)sc2Cl)cc1	-20.4
CCn1ccnc1CN1CCCC(C(=O)c2ccc3cc(OC)ccc3c2)C1 (stereo unspecified)	-25.34
COCCn1c(SCC(=O)Nc2ccccc2OC)nc2ccccc21	-8.822
Cc1cccc(OCCC(=O)N(C)CC(=O)Nc2cccc3ccccc23)c1	-36.12
Nc1[nH]c(C(=O)c2ccccc2)c(-c2ccc(Br)cc2)c1C(=O)c1cccs1	-2.496
Clc1ccc(-c2cn(-c3ccc(Cl)cc3)c3[n+]2CCCCC3)cc1	-28.84
COC(=O)CN1C(=S)N(c2ccc(Cl)cc2)C(=O)C1CC(=O)Nc1ccc(F)cc1 (stereo unspecified)	-24.98
Cc1ccc(OCC(O)CN2CCN(c3ccccn3)CC2)c(C)c1 (stereo unspecified)	10.97
O=C(CSCc1c(Cl)cccc1Cl)Nc1cccnc1	3.361
CC(C)(C)c1ccc(C(CC(=O)O)NC(=O)Cc2ccc(Cl)cc2)cc1 (stereo unspecified)	0.417
CC(=O)c1c(N2CCOCC2)nc2ccc(Cl)cc2c1-c1ccccc1	-24.54
O=C(NCCc1ccccc1)c1ccc2c(c1)S(=O)(=O)c1ccccc1C2=O	-37.25
CC(C)(C)C1CCC(OCC(O)CN2CCN(c3ccccn3)CC2)CC1 (stereo unspecified)	-28.85
CCOc1ccccc1N1CCN(Cc2cn[nH]c2-c2ccc(F)cc2)CC1	5.647
O=C1c2cccc3cccc(c23)C(=O)N1CCCn1ccnc1	1.367
O=C1CSC(c2cccnc2)N1Cc1ccc(Cl)c(Cl)c1 (stereo unspecified)	13.04
Cc1nn(Cc2cccc(F)c2)c(C)c1NC(=O)c1c(Cl)cnn1C	-3.249
CC(C)c1cc(C(N)=O)c(NC(=O)C2CCC2)s1	-34.87
Clc1ccccc1C1CC(c2ccccc2)=Nc2ccccc2N1 (stereo unspecified)	-9.367
C=CCN(CC=C)CC(O)Cn1c2ccccc2c2ccccc21 (stereo unspecified)	1.446
Cc1cc(C)nc(SCCC(=O)Nc2ccccc2Cl)n1	10.89
Cc1onc(-c2ccccc2)c1C(=O)Oc1ccccc1	-1.882
Cc1onc(-c2ccccc2)c1-c1nnc(-c2ccccc2C(F)(F)F)o1	17.85
O=C(CSc1ccc(-c2cccnc2)nn1)N1CCCc2ccccc21	-7.301
Cc1onc(-c2ccccc2Cl)c1C(=O)N[C@@H](C)c1ccccc1	1.938
CCCCNC(=O)c1cc2c(C)cc(C)cc2[nH]1	-19.77
O=C(c1ccc(Cl)cc1)C1CCCN(Cc2cccc3cnccc23)C1 (stereo unspecified)	-26.82
Cc1ccc(S(=O)(=O)N2CC(=O)Nc3ccccc32)cc1C	-22.64
CSc1sc(C(=O)Nc2ccc(F)cc2F)c2c1C=CCC2	-44.42
Cc1cc(NC(=O)CCCn2cc([N+](=O)[O-])cn2)n(Cc2ccc(F)cc2)n1	-12.16
CCOc1ccc(C(C)=O)cc1CN1C(=O)NC2(CCCCCCC2)C1=O	-10.14
O=C1c2cccc3cccc(c23)C(=O)N1c1ccccc1Cl	-35.76
Cc1ccsc1C(=O)N1CCCC(C(=O)c2cc(F)ccc2F)C1 (stereo unspecified)	1.264
Cc1ccc(C2NC(=O)c3[nH]nc(-c4ccccc4)c32)cc1 (stereo unspecified)	-1.797
Cn1c(=O)c2c(nc(N3CCOCC3)n2C/C=C/c2ccccc2)n(C)c1=O	-10.3

The last 4 entries again:

For O=C1c2cccc3cccc(c23)C(=O)N1c1ccccc1Cl the result was activity change -35.76.
For Cc1ccsc1C(=O)N1CCCC(C(=O)c2cc(F)ccc2F)C1 (stereo unspecified) the result was activity change 1.264.
For Cc1ccc(C2NC(=O)c3[nH]nc(-c4ccccc4)c32)cc1 (stereo unspecified) the result was activity change -1.797.
For Cn1c(=O)c2c(nc(N3CCOCC3)n2C/C=C/c2ccccc2)n(C)c1=O the result was activity change -10.3.